These are yes or no findings as the source states them, for the method shown. A result given as binding can be weak or reduced; the word gives no strength.
Target: Nuc2-BBX28 (Arabidopsis thaliana) (UniProt O81834)
Experiment: nucleolus-tethering system (NoTS); transient co-expression in tobacco (N. tabacum) leaves; bait fused to Nuc2 and held at the nucleolus, recruitment of CO to the periphery of the nucleolus seen by microscopy

Sequences of proteins named here, by UniProt entry; tags and fusion partners are left off. A change or cut given only in a name is not applied to a line headed by its entry.
UniProt O81834: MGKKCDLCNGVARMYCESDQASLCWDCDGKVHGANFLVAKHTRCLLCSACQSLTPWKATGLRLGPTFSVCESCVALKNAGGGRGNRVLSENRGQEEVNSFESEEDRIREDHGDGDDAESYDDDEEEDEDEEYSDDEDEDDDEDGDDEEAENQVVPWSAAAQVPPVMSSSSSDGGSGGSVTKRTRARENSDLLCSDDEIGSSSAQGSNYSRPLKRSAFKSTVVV
UniProt Q39057: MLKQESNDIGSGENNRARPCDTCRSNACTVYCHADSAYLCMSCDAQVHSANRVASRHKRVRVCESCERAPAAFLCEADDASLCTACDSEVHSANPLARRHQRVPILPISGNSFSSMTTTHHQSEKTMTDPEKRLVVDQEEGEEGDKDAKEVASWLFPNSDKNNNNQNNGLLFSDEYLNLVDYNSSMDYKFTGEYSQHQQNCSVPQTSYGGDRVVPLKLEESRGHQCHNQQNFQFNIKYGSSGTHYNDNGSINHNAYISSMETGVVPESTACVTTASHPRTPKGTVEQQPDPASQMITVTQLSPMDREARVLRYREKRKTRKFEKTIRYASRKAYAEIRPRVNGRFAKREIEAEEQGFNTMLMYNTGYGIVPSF

Substance: CO as expressed in the NoTS assay (from UniProt Q39057 1-373)
- binding: binds

Reference: article PMC7575571
